Experimental data published in the supplement of paper PMC10398353.
Values joined by “and” are separate entries in the source; they are usually repeats but may differ in a detail not shown here. Equal values may be shown once. Where a name gives a salt, the structure may show the parent alone. ± gives the standard deviation of the averaged measurements. The list shows a part of the results. Single values of this set are uncertain.

test system: Salmonella enterica serovar Typhimurium ST313 D23580; experiment: normalized bacterial growth (OD600 20 h minus 0 h, interquartile-mean normalized) (fraction of plate interquartile mean); higher = more bacterial growth (less inhibition); conditions: LPM (pH 5.8, low phosphate, low Mg2+), concentration: 10 µM, temperature: 37 °C

| Structure (SMILES) | normalized bacterial growth |
| --- | --- |
| O=C(O)CC[N+](=O)[O-] [3-Nitropropionic acid] | 1.02 |
| COC(=O)C[C@](O)(CCC(C)(C)O)C(=O)O[C@@H]1C(OC)=C[C@]23CCCN2CCc2cc4c(cc2[C@H]13)OCO4 | 0.979 |
| OCc1cnc[nH]1 [4-Imidazolemethanol hydrochloride] | 1.13 |
| C/C=C/c1ccc2c(c1)OCO2 | 1.32 |
| CN1CCc2cc3c(cc2[C@H]1[C@@H]1OC(=O)c2c1ccc1c2OCO1)OCO3 | 1.17 and 1.09 |
| Cc1nc(-c2ccc(-c3ccc(C(=O)N4CCc5cc6c(cc54)C4(CCN(C)CC4)CO6)cc3)c(C)c2)no1 | 0.996 |
| C[C@]12CC[C@H](O)C[C@H]1CC[C@@H]1[C@@H]2CC[C@]2(C)[C@@H](C3=CC(=O)OC3)CC[C@]12O [Digitoxigenin] | 0.935 |
| Cc1nccc2c1[nH]c1cc(O)ccc12 | 1.16 |
| CC(C)c1cc2c(c(O)c1O)[C@@]1(C(=O)O)CCCC(C)(C)[C@@H]1CC2 | 1.02 ± 0.025 |
| CCCCCCC(C)OC(=O)COc1ccc(Cl)cc1Cl (stereo not drawn) | 0.61 |
| CC(C)c1cccc(C(C)C)c1O [Propofol] | 1.02 |
| CCCN1CCC[C@@H]2Cc3n[nH]cc3C[C@H]21 [()-Quinpirole dihydrochloride] | 1.13 |
| CCCN1CCC[C@@H]2Cc3n[nH]cc3C[C@H]21 [(-)-Quinpirole hydrochloride] | 1.16 |
| C[C@]1(C(=O)O)CCC[C@]2(C)c3cc(O)ccc3CC[C@@H]12 | 1.04 |
| N[C@H](CO)Cc1ccccc1 | 0.93 |
| Cc1[nH]c2ccccc2c1CN(C)C | 0.925 |
| C[C@]12CCC(=O)C=C1C=C[C@@H]1[C@@H]2CC[C@@]2(C)[C@H]1CC[C@@]2(O)CCC(=O)O | 0.997 |
| C[C@]12CCC(=O)C=C1C=C[C@@H]1[C@@H]2CC[C@@]2(C)[C@H]1CC[C@@]2(O)CCC(=O)O [Canrenoic acid potassium salt] | 1.11 |
| CCOP(=S)(OCC)SCn1c(=O)oc2cc(Cl)ccc21 | 1.01 |
| O=C(O)COc1ccc(Cl)cc1Cl | 1.26 |
| CCNc1nc(Cl)nc(NCC)n1 | 1.13 |
| Cc1cccc(C)c1NC(=O)CN1CCCC1=O [Nefiracetam] | 1.14 |
| CO[C@H]1[C@H](O)[C@H](O[C@H]2CC[C@@]3(C=O)[C@H](CC[C@@H]4[C@@H]3CC[C@]3(C)[C@@H](C5=CC(=O)OC5)CC[C@]43O)C2)O[C@@H](C)[C@@H]1O | 1.01 ± 0.072 |
| COc1ccc2[nH]c3c(c2c1)CCNC3 ["6-Methoxy-1,2,3,4-tetrahydro-9H-pyrido[3,4b] indole"] | 0.729 |
| CC[C@@H](C(=O)[C@@H](C)[C@@H](O)[C@H](C)[C@@H]1O[C@@H]([C@@H](CC)C(=O)O)CC[C@@H]1C)[C@H]1O[C@]2(C=C[C@@H](O)[C@]3(CC[C@@](C)([C@H]4CC[C@](O)(CC)[C@H](C)O4)O3)O2)[C@H](C)C[C@@H]1C | 0.946 and 0.667 |
| CC(=O)O[C@@H]1[C@H]2CC[C@H]3[C@@](C)(O)[C@@H]4C[C@H](O)C(C)(C)[C@@]4(O)[C@H](O)C[C@@]13C[C@@]2(C)O | 1 |
| C(#CCN1CCCC1)CN1CCCC1 [Tremorine dihydrochloride] | 1.03 |

No new results follow: entries from further up.

| Structure (SMILES) | normalized bacterial growth |
| --- | --- |
| CCCCCCC(C)OC(=O)COc1ccc(Cl)cc1Cl (stereo not drawn) | 0.61 |
| CC(C)c1cccc(C(C)C)c1O [Propofol] | 1.02 |
| CCCN1CCC[C@@H]2Cc3n[nH]cc3C[C@H]21 [()-Quinpirole dihydrochloride] | 1.13 |
| CCCN1CCC[C@@H]2Cc3n[nH]cc3C[C@H]21 [(-)-Quinpirole hydrochloride] | 1.16 |
| C[C@]1(C(=O)O)CCC[C@]2(C)c3cc(O)ccc3CC[C@@H]12 | 1.04 |
| N[C@H](CO)Cc1ccccc1 | 0.93 |
| Cc1[nH]c2ccccc2c1CN(C)C | 0.925 |
| C[C@]12CCC(=O)C=C1C=C[C@@H]1[C@@H]2CC[C@@]2(C)[C@H]1CC[C@@]2(O)CCC(=O)O | 0.997 |
| C[C@]12CCC(=O)C=C1C=C[C@@H]1[C@@H]2CC[C@@]2(C)[C@H]1CC[C@@]2(O)CCC(=O)O [Canrenoic acid potassium salt] | 1.11 |
| CCOP(=S)(OCC)SCn1c(=O)oc2cc(Cl)ccc21 | 1.01 |
| O=C(O)COc1ccc(Cl)cc1Cl | 1.26 |
| CCNc1nc(Cl)nc(NCC)n1 | 1.13 |
| Cc1cccc(C)c1NC(=O)CN1CCCC1=O [Nefiracetam] | 1.14 |
| CO[C@H]1[C@H](O)[C@H](O[C@H]2CC[C@@]3(C=O)[C@H](CC[C@@H]4[C@@H]3CC[C@]3(C)[C@@H](C5=CC(=O)OC5)CC[C@]43O)C2)O[C@@H](C)[C@@H]1O | 1.01 ± 0.072 |
| COc1ccc2[nH]c3c(c2c1)CCNC3 ["6-Methoxy-1,2,3,4-tetrahydro-9H-pyrido[3,4b] indole"] | 0.729 |
| CC[C@@H](C(=O)[C@@H](C)[C@@H](O)[C@H](C)[C@@H]1O[C@@H]([C@@H](CC)C(=O)O)CC[C@@H]1C)[C@H]1O[C@]2(C=C[C@@H](O)[C@]3(CC[C@@](C)([C@H]4CC[C@](O)(CC)[C@H](C)O4)O3)O2)[C@H](C)C[C@@H]1C | 0.946 and 0.667 |

(further entries)

| Structure (SMILES) | normalized bacterial growth |
| --- | --- |
| N#CC(C#N)=Cc1ccc(O)c(O)c1 [Tyrphostin 23] | 0.867 |
| CC(C)[C@H]1C(=O)O[C@@H]2CCN3CC=C(COC(=O)[C@](C)(O)[C@]1(C)O)[C@H]23 | 1.18 |
| CN1CC[C@]2(CCN3CCc4c(oc5ccccc45)[C@@H]3C2)N(C)C1=O | 0.884 |
| COP(=O)(OC)OC=C(Cl)Cl | 1.14 |
| C[C@H]1CC[C@]2(NC1)O[C@H]1C[C@H]3[C@@H]4CC[C@H]5C[C@@H](O)CC[C@]5(C)[C@H]4CC[C@]3(C)[C@H]1[C@@H]2C | 0.742 and 0.98 |
| CCCC[N+]1(C)[C@@H]2C[C@@H](OC(=O)[C@H](CO)c3ccccc3)C[C@H]1[C@@H]1O[C@@H]12 (stereo partly drawn) ["(-)-Scopolamine,n-Butyl-, bromide"] | 1.04 |
| S=C=NCc1ccccc1 | 1.18 |
| C=CCc1ccc2c(c1)OCO2 | 1.24 |
| CCCC(C)C1(CC)C(=O)NC(=O)NC1=O (stereo not drawn) | 1.09 |
| CNC1CC(N)C(O)C(OC2OC(CO)C(O)C3OC4(OC(C(N)CO)C(O)C(O)C4O)OC23)C1O (stereo not drawn) | 1.15 |
| COP(=O)(OC)C(O)C(Cl)(Cl)Cl (stereo not drawn) | 0.878 |
| C[C@@H]1C(=O)O[C@H]2[C@H]1CC[C@@]1(C)C=CC(=O)[C@@]3(C)O[C@@]213 ["EPOXY (4,5alpha)-4,5-DIHYDROSANTONIN"] | 1.07 |
| C=CCN1CC[C@]23c4c5ccc(O)c4O[C@H]2C(=O)CC[C@@]3(O)[C@H]1C5 | 1.02 |
| C=CCN1CC[C@]23c4c5ccc(O)c4O[C@H]2C(=O)CC[C@@]3(O)[C@H]1C5 [Naloxone hydrochloride] | 1.16 ± 0.026 |
| NC(=O)c1cc(N2CC2)c([N+](=O)[O-])cc1[N+](=O)[O-] | 1.12 |
| CP(=O)(O)C1=CCNCC1 | 1.14 |
| C[C@@H]1O[C@H](C[N+](C)(C)C)C[C@H]1O [()-Muscarine chloride] | 0.951 |
| C[N+]1([O-])[C@@H]2CC(OC(=O)[C@H](CO)c3ccccc3)C[C@H]1[C@@H]1O[C@@H]12 (stereo partly drawn) | 1.05 |
| NC(CCCCCP(=O)(O)O)C(=O)O (stereo not drawn) [()-2-Amino-7-phosphonoheptanoic acid] | 1.01 |
| COC(=O)[C@@H](N)CCCNC(=N)N[N+](=O)[O-] [NG-Nitro-L-arginine methyl ester hydrochloride] | 0.916 |
| CN1CCc2cccc(Cl)c2CC1 | 0.982 |
| COc1c2c(cc3c1OCO3)CCN(C)C2 | 0.849 and 0.957 |
| C[C@]12CCC(=O)C[C@@H]1CC[C@@H]1[C@@H]2CC[C@]2(C)C(=O)CC[C@@H]12 ["5alpha-ANDROSTAN-3,17-DIONE"] | 1.03 |
| C[C@]12CC[C@H](O)C[C@H]1CC[C@@H]1[C@@H]2CC[C@]2(C)[C@@H](C3=CC(=O)OC3)[C@@H](O)C[C@]12O | 0.829 ± 0.11 |
| CC(=O)O[C@H]1C[C@@H]2CC[C@@H]3[C@H](CC[C@@]4(C)[C@H]3C[C@H]([N+]3(C)CCCCC3)[C@@H]4OC(C)=O)[C@@]2(C)C[C@@H]1[N+]1(C)CCCCC1 [Pancuronium bromide] | 0.869 |
| CC(=O)O[C@H]1C[C@@H]2CC[C@@H]3[C@H](CC[C@@]4(C)[C@H]3C[C@H]([N+]3(C)CCCCC3)[C@@H]4OC(C)=O)[C@@]2(C)C[C@@H]1[N+]1(C)CCCCC1 | 1.03 |
